## Screening data

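A panel of P. falciparum strains inside erythrocytes is exposed to compounds for three days, then a DNA-binding dye reports the amount of parasite DNA.
Each compound was titrated across a series from about 0.000037 to 29 µM.
The number is the fitted AC50, the concentration giving a half-maximal change in signal; a lower value means higher potency, whether the curve shows a decrease or an increase.
Calls follow the curve class and fit quality: every row here is inconclusive, covering signal-raising curves and weak, poorly fitted, partial or highest-dose-only inhibition curves.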

Values are in nM.
Every entry below has the call inconclusive.
These entries are mostly ones the record files as inconclusive; other results of the assay are not listed here.
A potency from a partial, single-point or poor curve is only a rough figure.
The first word of each remark tells which way the curve ran; it can be opposite to the aim of the assay.

compound,condition,fitted potency (nM),curve as filed
COC1C=CO[C@@]2(C)Oc3c(C)c(O)c4c(O)c(c5c(nc6cc(C)ccn65)c4c3C2=O)NC(=O)/C(C)=C\C=CC(C)C(O)[C@@H](C)C(O)C(C)[C@@H](OC(C)=O)C1C (stereo partly drawn),CP286,17782,"inhibitor, single point"
COC1C=CO[C@@]2(C)Oc3c(C)c(O)c4c(O)c(c5c(nc6cc(C)ccn65)c4c3C2=O)NC(=O)/C(C)=C\C=CC(C)C(O)[C@@H](C)C(O)C(C)[C@@H](OC(C)=O)C1C (stereo partly drawn),CP325,19011,"inhibitor, single point"
COC1C=CO[C@@]2(C)Oc3c(C)c(O)c4c(O)c(c5c(nc6cc(C)ccn65)c4c3C2=O)NC(=O)/C(C)=C\C=CC(C)C(O)[C@@H](C)C(O)C(C)[C@@H](OC(C)=O)C1C (stereo partly drawn),CP329,15101,"inhibitor, single point"
COC1C=CO[C@@]2(C)Oc3c(C)c(O)c4c(O)c(c5c(nc6cc(C)ccn65)c4c3C2=O)NC(=O)/C(C)=C\C=CC(C)C(O)[C@@H](C)C(O)C(C)[C@@H](OC(C)=O)C1C (stereo partly drawn),CP203,16944,"inhibitor, single point"
COC1C=CO[C@@]2(C)Oc3c(C)c(O)c4c(O)c(c5c(nc6cc(C)ccn65)c4c3C2=O)NC(=O)/C(C)=C\C=CC(C)C(O)[C@@H](C)C(O)C(C)[C@@H](OC(C)=O)C1C (stereo partly drawn),CP305,15101,"inhibitor, single point"
COC1C=CO[C@@]2(C)Oc3c(C)c(O)c4c(O)c(c5c(nc6cc(C)ccn65)c4c3C2=O)NC(=O)/C(C)=C\C=CC(C)C(O)[C@@H](C)C(O)C(C)[C@@H](OC(C)=O)C1C (stereo partly drawn),CP262,19011,"inhibitor, single point"
COC1C=CO[C@@]2(C)Oc3c(C)c(O)c4c(O)c(c5c(nc6cc(C)ccn65)c4c3C2=O)NC(=O)/C(C)=C\C=CC(C)C(O)[C@@H](C)C(O)C(C)[C@@H](OC(C)=O)C1C (stereo partly drawn),CP201,15101,"inhibitor, partial curve"
CNC(=O)NC(O)C(Cl)(Cl)Cl (stereo not drawn),DIV14,4776,"inhibitor, partial curve, poor fit"
CC(C)(C)c1ccc(CN2CCN([C@H](c3ccccc3)c3ccc(Cl)cc3)CC2)cc1,CP305,16944,"inhibitor, single point"
CC(C)(C)c1ccc(CN2CCN([C@H](c3ccccc3)c3ccc(Cl)cc3)CC2)cc1,FAB9,17782,"inhibitor, single point"
CC(C)(C)c1ccc(CN2CCN([C@H](c3ccccc3)c3ccc(Cl)cc3)CC2)cc1,ATS95,17782,"inhibitor, single point"
CC(C)(C)c1ccc(CN2CCN([C@H](c3ccccc3)c3ccc(Cl)cc3)CC2)cc1,CP325,19011,"inhibitor, single point"
CC(C)(C)c1ccc(CN2CCN([C@H](c3ccccc3)c3ccc(Cl)cc3)CC2)cc1,CP203,16944,"inhibitor, single point"
CC(C)(C)c1ccc(CN2CCN([C@H](c3ccccc3)c3ccc(Cl)cc3)CC2)cc1,CP268,16944,"inhibitor, single point"
CC(C)(C)c1ccc(CN2CCN([C@H](c3ccccc3)c3ccc(Cl)cc3)CC2)cc1,CP315,1346,"inhibitor, partial curve, poor fit"
CC(C)(C)c1ccc(CN2CCN([C@H](c3ccccc3)c3ccc(Cl)cc3)CC2)cc1,CP192,21331,"inhibitor, single point"
CC(C)(C)c1ccc(CN2CCN([C@H](c3ccccc3)c3ccc(Cl)cc3)CC2)cc1,DIV17,19011,"inhibitor, single point"
CC(C)(C)c1ccc(CN2CCN([C@H](c3ccccc3)c3ccc(Cl)cc3)CC2)cc1,CP262,19011,"inhibitor, single point"
CC(C)(C)c1ccc(CN2CCN([C@H](c3ccccc3)c3ccc(Cl)cc3)CC2)cc1,CP269,16944,"inhibitor, single point"
CC(C)(C)c1ccc(CN2CCN([C@H](c3ccccc3)c3ccc(Cl)cc3)CC2)cc1,CP215,19011,"inhibitor, single point"
CC(C)(C)c1ccc(CN2CCN([C@H](c3ccccc3)c3ccc(Cl)cc3)CC2)cc1,JCK,12589,"inhibitor, single point"
CC(C)(C)c1ccc(CN2CCN([C@H](c3ccccc3)c3ccc(Cl)cc3)CC2)cc1,CP201,16944,"inhibitor, single point"
CC(C)NC(C)Cc1ccc(I)cc1 (stereo not drawn),CP237,11220,"inhibitor, single point"
CC(C)NC(C)Cc1ccc(I)cc1 (stereo not drawn),CP297,9528,"inhibitor, single point"
CC(C)NC(C)Cc1ccc(I)cc1 (stereo not drawn),CP215,19011,"inhibitor, single point"
Oc1ccc2c3c1O[C@H]1[C@@H](O)CC[C@@]4(O)C(C2)N(CC2CCC2)CCC314 (stereo partly drawn),CP262,3381,"activator, single point"
Oc1ccc2c3c1O[C@H]1[C@@H](O)CC[C@@]4(O)C(C2)N(CC2CCC2)CCC314 (stereo partly drawn),CP203,2393,"activator, partial curve, poor fit"

2 of the entries, repeated:

{"compound": "Oc1ccc2c3c1O[C@H]1[C@@H](O)CC[C@@]4(O)C(C2)N(CC2CCC2)CCC314", "stereo": "stereo partly drawn", "condition": "CP203", "fitted potency (nM)": "2393", "curve as filed": "activator, partial curve, poor fit"}
{"compound": "CC(C)(C)c1ccc(CN2CCN([C@H](c3ccccc3)c3ccc(Cl)cc3)CC2)cc1", "condition": "JCK", "fitted potency (nM)": "12589", "curve as filed": "inhibitor, single point"}

Source: PubChem BioAssay AID504749 (NCATS, 2011).